# The other results are listed elsewhere or left out.
# The chains behind the UniProt entries cited, without tags or fusion partners. Where a name states a change or a piece, a line headed by the entry shows the natural chain unless it says otherwise.
# UniProt Q49B96: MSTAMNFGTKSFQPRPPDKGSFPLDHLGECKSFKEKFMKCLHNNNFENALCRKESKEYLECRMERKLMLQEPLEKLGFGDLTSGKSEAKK
# UniProt Q9BUN8: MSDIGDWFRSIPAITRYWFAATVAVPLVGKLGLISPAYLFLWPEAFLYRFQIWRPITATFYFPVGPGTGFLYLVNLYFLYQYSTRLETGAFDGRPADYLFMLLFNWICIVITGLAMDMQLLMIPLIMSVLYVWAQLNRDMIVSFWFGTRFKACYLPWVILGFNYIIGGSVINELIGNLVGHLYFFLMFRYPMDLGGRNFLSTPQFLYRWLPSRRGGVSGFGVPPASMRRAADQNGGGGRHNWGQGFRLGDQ
# UniProt Q96C86: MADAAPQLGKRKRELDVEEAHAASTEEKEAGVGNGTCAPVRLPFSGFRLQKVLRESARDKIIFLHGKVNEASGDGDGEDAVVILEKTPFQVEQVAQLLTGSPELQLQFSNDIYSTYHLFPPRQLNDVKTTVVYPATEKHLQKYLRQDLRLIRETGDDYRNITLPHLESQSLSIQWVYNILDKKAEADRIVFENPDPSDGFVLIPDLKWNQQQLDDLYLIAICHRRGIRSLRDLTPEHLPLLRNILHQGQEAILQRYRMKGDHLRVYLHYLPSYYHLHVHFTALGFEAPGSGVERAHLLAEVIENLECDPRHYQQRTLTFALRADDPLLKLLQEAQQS
# UniProt Q9P2I0: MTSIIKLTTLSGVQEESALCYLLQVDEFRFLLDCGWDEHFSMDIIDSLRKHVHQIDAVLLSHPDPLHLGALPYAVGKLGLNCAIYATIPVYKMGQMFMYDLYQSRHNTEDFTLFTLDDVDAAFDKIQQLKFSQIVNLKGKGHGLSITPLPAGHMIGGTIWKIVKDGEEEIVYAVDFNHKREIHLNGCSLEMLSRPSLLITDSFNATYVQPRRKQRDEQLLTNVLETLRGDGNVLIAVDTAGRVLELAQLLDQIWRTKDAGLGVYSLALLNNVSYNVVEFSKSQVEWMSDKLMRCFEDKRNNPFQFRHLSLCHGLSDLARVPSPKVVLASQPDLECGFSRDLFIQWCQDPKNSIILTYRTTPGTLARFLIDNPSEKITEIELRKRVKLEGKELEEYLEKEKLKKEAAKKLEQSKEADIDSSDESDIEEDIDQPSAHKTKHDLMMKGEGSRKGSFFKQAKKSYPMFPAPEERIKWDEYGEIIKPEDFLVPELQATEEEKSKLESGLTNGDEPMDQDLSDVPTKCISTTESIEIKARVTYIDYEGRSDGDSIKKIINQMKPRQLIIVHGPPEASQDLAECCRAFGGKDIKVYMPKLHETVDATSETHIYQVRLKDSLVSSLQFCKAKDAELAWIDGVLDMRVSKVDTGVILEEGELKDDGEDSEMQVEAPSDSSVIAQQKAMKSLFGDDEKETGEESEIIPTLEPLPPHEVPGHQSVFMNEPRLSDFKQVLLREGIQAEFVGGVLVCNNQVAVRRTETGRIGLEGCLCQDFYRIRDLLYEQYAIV
# UniProt Q16854: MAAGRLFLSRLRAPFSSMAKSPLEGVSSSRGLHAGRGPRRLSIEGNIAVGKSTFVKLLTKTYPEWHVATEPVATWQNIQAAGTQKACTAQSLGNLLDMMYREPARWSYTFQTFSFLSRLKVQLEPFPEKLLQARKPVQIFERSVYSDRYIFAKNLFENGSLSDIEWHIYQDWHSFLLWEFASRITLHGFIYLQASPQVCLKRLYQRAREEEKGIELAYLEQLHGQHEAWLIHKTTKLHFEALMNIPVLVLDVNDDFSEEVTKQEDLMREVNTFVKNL
# UniProt Q99829: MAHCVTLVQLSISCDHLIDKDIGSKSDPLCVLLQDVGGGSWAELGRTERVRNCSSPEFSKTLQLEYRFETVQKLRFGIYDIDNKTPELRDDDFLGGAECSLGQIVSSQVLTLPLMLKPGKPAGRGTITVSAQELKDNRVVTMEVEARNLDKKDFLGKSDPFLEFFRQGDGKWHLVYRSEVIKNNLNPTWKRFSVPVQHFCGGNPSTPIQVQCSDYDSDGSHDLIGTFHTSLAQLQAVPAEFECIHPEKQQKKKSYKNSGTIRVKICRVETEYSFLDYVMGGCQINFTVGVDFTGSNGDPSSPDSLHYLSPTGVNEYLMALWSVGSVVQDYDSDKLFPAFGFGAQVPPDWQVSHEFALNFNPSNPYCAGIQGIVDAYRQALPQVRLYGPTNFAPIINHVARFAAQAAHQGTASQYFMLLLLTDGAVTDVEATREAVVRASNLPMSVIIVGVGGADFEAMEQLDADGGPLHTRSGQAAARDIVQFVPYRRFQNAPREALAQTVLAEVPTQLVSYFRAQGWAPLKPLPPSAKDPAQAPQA
# UniProt Q9BTE1, whole entry: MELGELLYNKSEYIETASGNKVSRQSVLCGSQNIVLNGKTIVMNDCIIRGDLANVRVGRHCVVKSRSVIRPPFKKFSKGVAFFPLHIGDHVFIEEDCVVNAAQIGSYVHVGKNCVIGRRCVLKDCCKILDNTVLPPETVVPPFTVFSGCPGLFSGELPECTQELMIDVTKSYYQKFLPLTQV
# UniProt O60888: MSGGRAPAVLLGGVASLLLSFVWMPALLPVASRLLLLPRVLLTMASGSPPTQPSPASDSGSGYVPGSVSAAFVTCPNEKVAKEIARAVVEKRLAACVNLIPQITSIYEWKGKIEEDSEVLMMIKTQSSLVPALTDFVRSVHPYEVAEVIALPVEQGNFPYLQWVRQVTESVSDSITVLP
# UniProt Q5TA45, whole entry: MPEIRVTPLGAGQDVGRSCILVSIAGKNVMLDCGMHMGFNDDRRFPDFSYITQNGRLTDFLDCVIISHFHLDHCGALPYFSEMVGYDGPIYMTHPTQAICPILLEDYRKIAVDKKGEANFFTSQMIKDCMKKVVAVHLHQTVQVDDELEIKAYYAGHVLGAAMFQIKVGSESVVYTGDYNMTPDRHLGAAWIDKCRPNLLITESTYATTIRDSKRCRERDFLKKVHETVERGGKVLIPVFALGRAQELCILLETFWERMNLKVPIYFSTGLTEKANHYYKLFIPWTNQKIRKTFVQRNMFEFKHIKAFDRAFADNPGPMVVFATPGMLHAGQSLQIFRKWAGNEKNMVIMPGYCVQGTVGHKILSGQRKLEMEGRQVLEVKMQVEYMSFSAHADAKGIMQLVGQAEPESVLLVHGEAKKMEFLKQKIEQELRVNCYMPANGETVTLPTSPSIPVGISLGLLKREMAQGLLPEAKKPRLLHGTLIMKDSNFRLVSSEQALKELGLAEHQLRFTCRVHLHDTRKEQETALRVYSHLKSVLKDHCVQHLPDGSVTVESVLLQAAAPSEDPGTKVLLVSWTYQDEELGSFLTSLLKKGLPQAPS
# UniProt P39656: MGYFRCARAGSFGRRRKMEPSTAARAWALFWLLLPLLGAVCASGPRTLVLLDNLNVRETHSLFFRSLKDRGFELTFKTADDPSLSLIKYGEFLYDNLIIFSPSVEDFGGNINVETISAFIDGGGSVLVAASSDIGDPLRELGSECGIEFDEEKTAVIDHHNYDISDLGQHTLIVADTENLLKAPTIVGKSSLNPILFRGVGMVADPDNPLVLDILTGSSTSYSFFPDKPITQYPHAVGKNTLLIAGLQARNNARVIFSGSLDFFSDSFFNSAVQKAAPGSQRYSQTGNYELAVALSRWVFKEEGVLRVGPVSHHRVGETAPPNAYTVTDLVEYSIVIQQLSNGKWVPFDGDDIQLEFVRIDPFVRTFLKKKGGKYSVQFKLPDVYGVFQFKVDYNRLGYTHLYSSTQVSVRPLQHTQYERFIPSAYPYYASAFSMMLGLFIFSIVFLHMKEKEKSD
# Compound: COc1ccc(Cn2ccc3ccc(C(=O)NO)cc32)cc1
# Assay: dose-dependent thermal stabilisation call (2D-TPP, DLPTP, 10% FDR) (binary (1 = stabilised)); higher = stabilised by the compound
# Details: system: HL-60 intact cells; concentration range 0.04-10 µM
row,Target,dose-dependent thermal stabilisation call
1,COX19 (UniProt Q49B96),inactive: 0
2,DERL1 (UniProt Q9BUN8),inactive: 0
3,DCPS (UniProt Q96C86),inactive: 0
4,CPSF2 (UniProt Q9P2I0),inactive: 0
5,DGUOK (UniProt Q16854),inactive: 0
6,CPNE1 (UniProt Q99829),inactive: 0
7,DCTN5 (UniProt Q9BTE1),inactive: 0
8,CUX1,inactive: 0
9,CUTA (UniProt O60888),inactive: 0
10,CPSF3L (UniProt Q5TA45),inactive: 0
11,DDOST (UniProt P39656),inactive: 0
